Results are given in words; binding and its absence hold for the method and conditions named. Some entries that bind do so weakly or less than the wild type.
Tests used:
[1] = target: DNA sliding clamp (β subunit) (E. coli) (UniProt P0A988); experiment: SEC; Pol IV 20 μM with clamp 10 μM (dimer), alone; fractions by SDS-PAGE; both purified
[2] = target: DNA sliding clamp (β subunit) (E. coli) (UniProt P0A988); experiment: SEC; competition: Pol IV 20 μM and clamp 10 μM (dimer) with exonuclease 10 μM and/or Pol III or its C-terminal deletions (Pol III 10 μM); fractions by SDS-PAGE; both purified

Chains of the proteins cited; added tags and fusions are not shown.
UniProt P0A988: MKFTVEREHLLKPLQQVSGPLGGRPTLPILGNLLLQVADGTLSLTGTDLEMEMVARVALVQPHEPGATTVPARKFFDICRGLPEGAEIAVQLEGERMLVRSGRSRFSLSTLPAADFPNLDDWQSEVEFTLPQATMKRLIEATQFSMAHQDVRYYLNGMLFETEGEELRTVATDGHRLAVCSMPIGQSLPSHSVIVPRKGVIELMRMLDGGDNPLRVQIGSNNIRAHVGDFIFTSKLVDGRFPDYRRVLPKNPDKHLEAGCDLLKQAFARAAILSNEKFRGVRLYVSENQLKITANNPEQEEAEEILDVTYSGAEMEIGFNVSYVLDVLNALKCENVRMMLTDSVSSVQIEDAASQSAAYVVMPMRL

B1: translesion DNA polymerase IV (Pol IV) (enzyme, UniProt Q47155 1-351)
chain: MRKIIHVDMDCFFAAVEMRDNPALRDIPIAIGGSRERRGVISTANYPARKFGVRSAMPTGMALKLCPHLTLLPGRFDAYKEASNHIREIFSRYTSRIEPLSLDEAYLDVTDSVHCHGSATLIAQEIRQTIFNELQLTASAGVAPVKFLAKIASDMNKPNGQFVITPAEVPAFLQTLPLAKIPGVGKVSAAKLEAMGLRTCGDVQKCDLVMLLKRFGKFGRILWERSQGIDERDVNSERLRKSVGVERTMAEDIHHWSECEAIIERLYPELERRLAKVKPDLLIARQGVKLKFDDFQQTTQEHVWPRLNKADLIATARKTWDERRGGRGVRLVGLHVTLLDPQMERQLVLGL
For B1, the binding [1] was “binds” and the binding [2] was “binds”.
